Read-outs that look alike come from different tables or passages of the source. Results are given in words; binding and its absence hold for the method and conditions named. A result given as binding can be weak or reduced; the word gives no strength. Sequences can lack the tags named with a protein. For part of these data: Binding seen in cells or lysates may run through a third protein.
Key:
Experiment in all cases: pull-down
[1] = biological target: GST-tagged SQ/DWD motifs of BCP4 (Arabidopsis thaliana)
[2] = biological target: GST-tagged deletion 4 of BCP4 SQ/DWD motif (Arabidopsis thaliana)
[3] = biological target: GST-tagged SQ/DWD motifs of BCP4 (Arabidopsis thaliana); remark: listed apart in the source

binding [1]: binds
binding [2]: binds
binding [3]: binds
B1: His-tagged full-length NBS1 (protein, UniProt Q0H8D7 1-542)
chain: MVWGLFPVDPLSGEDKYYIFSKGIYKVGRKGCDIIINKDKGVSRIHAELTFDATTVSTSRRNKSSSDTSSFVIRVKDCSKYGTFVKTDLGTKDKVHELSNKEKILQDGDVIAFGTGSAIYRLSLIPLVFYLCPSSETFKVDQPVQDAVSSIGARISPTLSEECTHVLLEPRMQVNEALINAILAKKTIILTNWVMLLAEKSICSEIPGYSQYRPSVMVEEALVDVLELNVREKCLEGFTFVLEPTDTYRFGCSFPSLLEVCGAETVTIEDISSMSQDSQFGEINRMICVIPKSAGDKFGRFKHLSLLSRVNEMDLVCAVFSGNLPSTSLIPPSVVISSSCSTDETVVADSEAEEEETTSSVHMIDATEKAETPEKPAAIVIEDSPVTILEETSNLNEFKSVNLLADTESRGHMDEKNSSDSVTIRRDRNDEAETGKSEIIYTQDLIVRDLRSTRKVQSTGGEGVVDFKRFRKGNVTCGNSFSSLIPFAKDPYKEYDSWDVTDFMKEEKKRKQMEAIAEDLFKTEKARKRGTAGSIRGFLSGS

Reference: article doi:10.1101/2023.05.19.541430
